Laboratory results: article PMC8495450
Results are given in words; binding and its absence hold for the method and conditions named. In cells and extracts the contact can be indirect. Here binding means that the protein was enriched with, or labelled near, the bait; the list need not be complete.

Sequences of proteins named here, by UniProt entry; tags and fusion partners are left off. Residues count along the entry.
UniProt P08003, residues 21-638: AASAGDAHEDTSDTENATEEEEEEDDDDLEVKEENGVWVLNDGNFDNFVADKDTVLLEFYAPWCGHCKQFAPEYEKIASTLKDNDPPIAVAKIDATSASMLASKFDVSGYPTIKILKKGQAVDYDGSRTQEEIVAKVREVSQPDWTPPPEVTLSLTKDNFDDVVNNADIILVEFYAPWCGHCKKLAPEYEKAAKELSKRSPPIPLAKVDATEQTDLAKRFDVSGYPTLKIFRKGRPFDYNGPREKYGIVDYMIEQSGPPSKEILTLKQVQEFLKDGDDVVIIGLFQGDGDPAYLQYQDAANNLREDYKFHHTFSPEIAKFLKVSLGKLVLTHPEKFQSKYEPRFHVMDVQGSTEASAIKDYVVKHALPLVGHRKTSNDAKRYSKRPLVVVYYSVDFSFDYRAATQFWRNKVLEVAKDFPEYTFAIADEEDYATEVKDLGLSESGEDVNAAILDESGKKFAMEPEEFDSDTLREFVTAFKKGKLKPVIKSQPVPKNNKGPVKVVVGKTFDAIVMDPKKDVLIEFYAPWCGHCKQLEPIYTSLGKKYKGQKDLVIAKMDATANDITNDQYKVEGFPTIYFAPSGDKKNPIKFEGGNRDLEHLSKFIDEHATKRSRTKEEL
UniProt Q9DCT2, residues 36-263: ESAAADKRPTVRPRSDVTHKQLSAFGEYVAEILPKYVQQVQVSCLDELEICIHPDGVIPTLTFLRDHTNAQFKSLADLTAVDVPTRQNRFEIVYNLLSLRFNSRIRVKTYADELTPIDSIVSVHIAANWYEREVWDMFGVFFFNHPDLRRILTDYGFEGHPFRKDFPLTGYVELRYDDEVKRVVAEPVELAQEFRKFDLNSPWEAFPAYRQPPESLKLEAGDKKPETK

Molecular target: Pdia4 (endogenous, Min6 cells) (mouse (endogenous in Min6)) (UniProt P08003)
Assay: affinity purification with mass spectrometry; Min6 cells lysed with RIPA buffer; lysates precipitated with anti-Pdia4 antibody and isotype antibody; LC-MS, Mascot search

| binding | Molecule |
| --- | --- |
| binds | Ndufs3 (endogenous, Min6 cells) (from UniProt Q9DCT2 36-263) |
| binds | p22^phox (endogenous, Min6 cells) (protein, UniProt Q61462 1-192) MGQIEWAMWANEQALASGLILITGGIVATAGRFTQWYFGAYSIAAGVLICLLEYPRGKRKKGSTMERCGQKYLTSVVKLFGPLTRNYYVRAALHFLLSVPAGFLLATILGTVCLAIASVIYLLAAIRGEQWTPIEPKPKERPQVGGTIKQPPTNPPPRPPAEVRKKPSEGEEEAASAGGPQVNPMPVTDEVV |
